From article PMC13507205, “FAIMS-GPF XL-MS: crosslinking-mass spectrometry based on gas-phase fractionation” (Nature Communications, 2026)
These are yes or no findings as the source states them, for the method shown. In cells and extracts the contact can be indirect. Some entries that bind do so weakly or less than the wild type.

Molecular target: T1, Septin 11 (human (endogenous in HeLa)) (UniProt Q9NVA2)
T1 sequence: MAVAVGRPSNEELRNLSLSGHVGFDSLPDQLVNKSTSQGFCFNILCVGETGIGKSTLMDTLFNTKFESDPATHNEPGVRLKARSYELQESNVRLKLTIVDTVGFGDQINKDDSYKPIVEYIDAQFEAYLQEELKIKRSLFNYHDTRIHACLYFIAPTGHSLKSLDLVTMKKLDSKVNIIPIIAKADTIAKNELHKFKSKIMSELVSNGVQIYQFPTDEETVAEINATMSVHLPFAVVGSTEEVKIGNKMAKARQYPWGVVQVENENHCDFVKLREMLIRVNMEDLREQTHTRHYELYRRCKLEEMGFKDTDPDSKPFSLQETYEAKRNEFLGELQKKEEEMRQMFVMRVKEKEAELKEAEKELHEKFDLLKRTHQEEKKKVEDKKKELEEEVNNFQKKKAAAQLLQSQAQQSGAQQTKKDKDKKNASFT
Assay: cross-linking; 'native' HeLa lysate at 1 mg/mL in 20 mM Hepes, 150 mM NaCl, 1.5 mM MgCl2, 0.5 mM DTT, pH 7.8; 2 mM DSSO, 45 min, RT; three replicates; 11-CV FAIMS-GPF nLC-MS/MS

- binding: binds
B1: Septin 2 (protein, UniProt Q15019 1-361)
chain: MSKQQPTQFINPETPGYVGFANLPNQVHRKSVKKGFEFTLMVVGESGLGKSTLINSLFLTDLYPERVIPGAAEKIERTVQIEASTVEIEERGVKLRLTVVDTPGYGDAINCRDCFKTIISYIDEQFERYLHDESGLNRRHIIDNRVHCCFYFISPFGHGLKPLDVAFMKAIHNKVNIVPVIAKADTLTLKERERLKKRILDEIEEHNIKIYHLPDAESDEDEDFKEQTRLLKASIPFSVVGSNQLIEAKGKKVRGRLYPWGVVEVENPEHNDFLKLRTMLITHMQDLQEVTQDLHYENFRSERLKRGGRKVENEDMNKDQILLEKEAELRRMQEMIARMQAQMQMQMQGGDGDGGALGHHV
